Data reported in the supplement of paper PMC10849652.
Some of the results follow.

The chains behind the UniProt entries cited, without tags or fusion partners. Where a name states a change or a piece, a line headed by the entry shows the natural chain unless it says otherwise.
UniProt Q4G0F5, whole entry, looked up: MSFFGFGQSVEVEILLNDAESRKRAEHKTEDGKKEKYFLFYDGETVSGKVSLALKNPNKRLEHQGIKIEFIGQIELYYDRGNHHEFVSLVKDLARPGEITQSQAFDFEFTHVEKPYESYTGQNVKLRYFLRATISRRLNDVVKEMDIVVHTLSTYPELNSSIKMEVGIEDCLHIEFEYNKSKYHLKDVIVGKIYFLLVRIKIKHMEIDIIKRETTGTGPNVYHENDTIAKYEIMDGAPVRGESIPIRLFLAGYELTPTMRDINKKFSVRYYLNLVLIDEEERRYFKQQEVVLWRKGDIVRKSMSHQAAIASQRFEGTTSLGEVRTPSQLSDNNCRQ
UniProt Q14191, whole entry, looked up: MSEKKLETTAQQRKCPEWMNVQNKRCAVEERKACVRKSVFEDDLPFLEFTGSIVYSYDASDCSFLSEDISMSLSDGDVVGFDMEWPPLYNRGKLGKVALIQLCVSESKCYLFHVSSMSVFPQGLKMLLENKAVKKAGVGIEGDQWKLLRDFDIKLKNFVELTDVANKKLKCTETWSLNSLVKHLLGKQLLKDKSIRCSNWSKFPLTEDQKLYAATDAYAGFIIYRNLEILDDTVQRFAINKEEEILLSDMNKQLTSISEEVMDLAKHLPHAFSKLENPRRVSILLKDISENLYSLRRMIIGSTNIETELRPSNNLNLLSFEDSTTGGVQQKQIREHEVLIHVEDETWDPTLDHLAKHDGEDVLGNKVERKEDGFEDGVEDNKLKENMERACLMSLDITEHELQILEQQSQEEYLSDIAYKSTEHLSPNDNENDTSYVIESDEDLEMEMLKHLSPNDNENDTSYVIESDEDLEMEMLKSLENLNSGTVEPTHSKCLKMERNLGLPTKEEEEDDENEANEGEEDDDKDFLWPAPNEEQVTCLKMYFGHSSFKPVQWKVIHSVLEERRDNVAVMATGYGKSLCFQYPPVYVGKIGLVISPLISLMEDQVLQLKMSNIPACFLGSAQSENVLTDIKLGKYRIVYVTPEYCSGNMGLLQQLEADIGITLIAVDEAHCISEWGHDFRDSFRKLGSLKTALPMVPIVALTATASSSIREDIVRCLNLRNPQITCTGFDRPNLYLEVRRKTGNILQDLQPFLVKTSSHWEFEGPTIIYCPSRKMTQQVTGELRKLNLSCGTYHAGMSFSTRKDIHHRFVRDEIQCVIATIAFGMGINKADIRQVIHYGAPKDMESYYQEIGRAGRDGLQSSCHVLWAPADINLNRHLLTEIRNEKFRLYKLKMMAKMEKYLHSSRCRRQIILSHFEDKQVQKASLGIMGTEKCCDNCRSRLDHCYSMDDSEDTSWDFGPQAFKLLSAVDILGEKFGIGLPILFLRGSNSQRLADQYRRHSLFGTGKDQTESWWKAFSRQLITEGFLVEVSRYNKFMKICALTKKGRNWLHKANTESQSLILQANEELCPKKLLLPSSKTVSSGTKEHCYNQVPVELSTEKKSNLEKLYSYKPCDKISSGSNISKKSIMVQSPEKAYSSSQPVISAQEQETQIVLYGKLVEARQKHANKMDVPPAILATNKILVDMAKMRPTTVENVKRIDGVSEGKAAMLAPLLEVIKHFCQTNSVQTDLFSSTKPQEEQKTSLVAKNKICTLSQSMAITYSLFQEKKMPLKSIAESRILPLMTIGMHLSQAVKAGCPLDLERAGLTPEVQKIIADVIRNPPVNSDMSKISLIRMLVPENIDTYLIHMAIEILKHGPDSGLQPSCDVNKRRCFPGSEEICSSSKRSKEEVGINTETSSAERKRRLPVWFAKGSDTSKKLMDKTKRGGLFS
UniProt Q9Y2W2: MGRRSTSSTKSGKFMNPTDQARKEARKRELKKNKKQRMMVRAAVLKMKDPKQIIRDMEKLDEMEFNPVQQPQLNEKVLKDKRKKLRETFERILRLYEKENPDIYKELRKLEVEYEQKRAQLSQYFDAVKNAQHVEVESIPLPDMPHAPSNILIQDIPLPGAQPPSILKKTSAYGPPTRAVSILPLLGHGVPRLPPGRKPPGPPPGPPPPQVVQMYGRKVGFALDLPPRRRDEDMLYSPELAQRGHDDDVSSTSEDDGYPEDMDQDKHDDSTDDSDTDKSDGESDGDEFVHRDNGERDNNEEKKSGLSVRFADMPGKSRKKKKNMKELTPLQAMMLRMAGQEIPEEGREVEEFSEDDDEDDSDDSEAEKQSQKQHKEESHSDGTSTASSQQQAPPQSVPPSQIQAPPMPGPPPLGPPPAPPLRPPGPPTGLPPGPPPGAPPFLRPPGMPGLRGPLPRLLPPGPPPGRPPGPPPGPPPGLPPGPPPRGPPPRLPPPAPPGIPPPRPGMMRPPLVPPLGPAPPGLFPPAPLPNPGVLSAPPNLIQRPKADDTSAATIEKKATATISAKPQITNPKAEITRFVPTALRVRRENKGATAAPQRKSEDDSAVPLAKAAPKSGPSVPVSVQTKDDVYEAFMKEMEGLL
UniProt Q9H267: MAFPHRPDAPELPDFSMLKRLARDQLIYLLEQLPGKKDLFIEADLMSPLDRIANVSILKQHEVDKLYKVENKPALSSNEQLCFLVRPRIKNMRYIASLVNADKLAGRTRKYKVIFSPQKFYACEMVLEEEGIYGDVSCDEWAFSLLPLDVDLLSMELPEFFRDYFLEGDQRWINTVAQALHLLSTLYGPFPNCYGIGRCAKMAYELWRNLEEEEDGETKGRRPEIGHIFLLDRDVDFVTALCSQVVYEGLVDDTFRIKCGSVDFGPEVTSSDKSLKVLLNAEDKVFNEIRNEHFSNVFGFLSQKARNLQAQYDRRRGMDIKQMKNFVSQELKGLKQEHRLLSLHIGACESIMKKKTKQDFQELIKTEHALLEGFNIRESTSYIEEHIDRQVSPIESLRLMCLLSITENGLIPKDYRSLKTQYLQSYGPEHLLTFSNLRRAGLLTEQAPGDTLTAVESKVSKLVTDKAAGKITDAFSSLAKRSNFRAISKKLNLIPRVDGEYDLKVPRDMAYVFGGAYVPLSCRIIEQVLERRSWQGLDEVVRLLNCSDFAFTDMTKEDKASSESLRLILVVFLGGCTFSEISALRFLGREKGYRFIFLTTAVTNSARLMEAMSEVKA
UniProt Q9H1Z4: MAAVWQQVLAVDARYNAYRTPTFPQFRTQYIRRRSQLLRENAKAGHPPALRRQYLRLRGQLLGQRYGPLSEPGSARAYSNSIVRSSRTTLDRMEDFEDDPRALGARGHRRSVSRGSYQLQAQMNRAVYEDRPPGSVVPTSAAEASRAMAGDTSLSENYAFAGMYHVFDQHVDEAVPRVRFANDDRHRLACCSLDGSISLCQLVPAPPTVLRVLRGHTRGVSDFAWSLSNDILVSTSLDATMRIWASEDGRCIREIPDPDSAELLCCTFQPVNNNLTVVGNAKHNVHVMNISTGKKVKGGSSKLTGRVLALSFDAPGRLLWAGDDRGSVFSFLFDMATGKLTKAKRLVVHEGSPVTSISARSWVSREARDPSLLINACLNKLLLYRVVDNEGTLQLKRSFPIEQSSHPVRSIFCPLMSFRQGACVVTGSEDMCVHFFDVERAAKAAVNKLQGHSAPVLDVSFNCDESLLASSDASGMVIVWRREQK
UniProt A5D8V6: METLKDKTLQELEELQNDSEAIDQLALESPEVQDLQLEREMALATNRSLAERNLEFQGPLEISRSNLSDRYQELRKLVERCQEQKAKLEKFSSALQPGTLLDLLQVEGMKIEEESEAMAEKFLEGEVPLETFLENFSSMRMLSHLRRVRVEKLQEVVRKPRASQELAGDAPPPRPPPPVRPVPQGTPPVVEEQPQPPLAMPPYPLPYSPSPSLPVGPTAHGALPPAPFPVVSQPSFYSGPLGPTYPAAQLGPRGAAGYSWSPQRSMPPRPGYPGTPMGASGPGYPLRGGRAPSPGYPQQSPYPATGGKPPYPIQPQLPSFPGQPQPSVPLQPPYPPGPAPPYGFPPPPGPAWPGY
UniProt Q9NNW5: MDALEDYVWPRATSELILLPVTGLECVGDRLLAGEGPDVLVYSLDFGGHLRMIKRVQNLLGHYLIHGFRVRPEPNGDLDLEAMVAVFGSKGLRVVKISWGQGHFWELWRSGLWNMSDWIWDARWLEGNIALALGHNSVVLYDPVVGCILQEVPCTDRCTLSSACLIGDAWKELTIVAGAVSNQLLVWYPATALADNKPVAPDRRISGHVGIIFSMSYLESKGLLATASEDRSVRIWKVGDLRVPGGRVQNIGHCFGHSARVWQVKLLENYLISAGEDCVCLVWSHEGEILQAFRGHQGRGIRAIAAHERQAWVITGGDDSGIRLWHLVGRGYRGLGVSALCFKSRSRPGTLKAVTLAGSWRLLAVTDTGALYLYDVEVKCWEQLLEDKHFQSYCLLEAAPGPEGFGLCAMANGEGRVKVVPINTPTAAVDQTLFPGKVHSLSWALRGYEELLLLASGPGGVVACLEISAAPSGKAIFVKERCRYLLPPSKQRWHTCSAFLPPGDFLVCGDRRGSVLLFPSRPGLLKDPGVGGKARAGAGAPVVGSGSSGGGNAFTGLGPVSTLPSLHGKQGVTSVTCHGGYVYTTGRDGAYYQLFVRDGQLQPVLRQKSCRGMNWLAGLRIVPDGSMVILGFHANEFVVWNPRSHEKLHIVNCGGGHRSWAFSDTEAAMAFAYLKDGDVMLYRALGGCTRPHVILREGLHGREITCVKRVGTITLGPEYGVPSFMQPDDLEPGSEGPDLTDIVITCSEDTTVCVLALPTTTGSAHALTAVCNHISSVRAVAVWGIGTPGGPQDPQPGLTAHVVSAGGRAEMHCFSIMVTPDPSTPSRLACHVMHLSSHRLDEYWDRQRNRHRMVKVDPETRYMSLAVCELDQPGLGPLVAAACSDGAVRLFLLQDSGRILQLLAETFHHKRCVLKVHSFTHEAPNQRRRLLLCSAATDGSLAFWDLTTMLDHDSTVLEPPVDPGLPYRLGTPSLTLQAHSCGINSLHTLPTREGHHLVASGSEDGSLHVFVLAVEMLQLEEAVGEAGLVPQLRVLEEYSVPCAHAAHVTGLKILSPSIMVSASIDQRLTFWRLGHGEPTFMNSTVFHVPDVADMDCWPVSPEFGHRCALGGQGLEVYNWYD
UniProt P23025: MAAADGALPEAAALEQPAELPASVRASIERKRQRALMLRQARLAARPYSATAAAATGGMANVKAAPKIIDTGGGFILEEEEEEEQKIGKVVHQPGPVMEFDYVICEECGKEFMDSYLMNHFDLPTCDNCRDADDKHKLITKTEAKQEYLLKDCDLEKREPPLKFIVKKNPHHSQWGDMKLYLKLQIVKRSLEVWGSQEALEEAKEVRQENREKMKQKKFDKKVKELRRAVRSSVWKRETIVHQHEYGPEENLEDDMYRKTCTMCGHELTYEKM
UniProt Q96S55: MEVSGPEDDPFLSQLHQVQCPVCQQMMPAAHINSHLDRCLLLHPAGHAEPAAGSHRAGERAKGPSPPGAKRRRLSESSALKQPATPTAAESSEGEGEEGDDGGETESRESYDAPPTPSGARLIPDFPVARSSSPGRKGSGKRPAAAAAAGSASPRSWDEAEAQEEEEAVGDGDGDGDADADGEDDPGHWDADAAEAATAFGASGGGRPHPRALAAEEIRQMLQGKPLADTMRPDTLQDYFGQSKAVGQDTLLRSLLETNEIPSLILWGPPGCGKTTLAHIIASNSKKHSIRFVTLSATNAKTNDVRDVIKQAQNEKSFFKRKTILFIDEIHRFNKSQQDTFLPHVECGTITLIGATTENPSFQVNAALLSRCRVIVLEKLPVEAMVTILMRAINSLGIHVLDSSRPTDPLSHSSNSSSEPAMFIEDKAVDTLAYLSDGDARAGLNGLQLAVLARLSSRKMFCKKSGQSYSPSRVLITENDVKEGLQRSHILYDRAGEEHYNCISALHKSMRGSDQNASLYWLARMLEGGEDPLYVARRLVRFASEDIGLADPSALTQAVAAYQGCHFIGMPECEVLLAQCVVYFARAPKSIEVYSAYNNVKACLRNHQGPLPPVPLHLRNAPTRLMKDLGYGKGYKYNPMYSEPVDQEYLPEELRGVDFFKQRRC
UniProt Q9Y484: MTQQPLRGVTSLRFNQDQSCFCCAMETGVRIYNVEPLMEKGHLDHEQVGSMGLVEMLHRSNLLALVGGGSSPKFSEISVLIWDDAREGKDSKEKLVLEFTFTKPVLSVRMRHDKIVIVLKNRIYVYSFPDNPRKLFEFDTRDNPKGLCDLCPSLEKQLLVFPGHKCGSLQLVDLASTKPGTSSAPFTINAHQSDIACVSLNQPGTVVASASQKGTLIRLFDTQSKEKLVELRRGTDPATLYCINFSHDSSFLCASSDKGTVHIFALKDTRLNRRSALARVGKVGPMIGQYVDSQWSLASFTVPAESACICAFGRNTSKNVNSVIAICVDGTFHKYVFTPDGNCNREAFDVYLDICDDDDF
UniProt Q9H9H4: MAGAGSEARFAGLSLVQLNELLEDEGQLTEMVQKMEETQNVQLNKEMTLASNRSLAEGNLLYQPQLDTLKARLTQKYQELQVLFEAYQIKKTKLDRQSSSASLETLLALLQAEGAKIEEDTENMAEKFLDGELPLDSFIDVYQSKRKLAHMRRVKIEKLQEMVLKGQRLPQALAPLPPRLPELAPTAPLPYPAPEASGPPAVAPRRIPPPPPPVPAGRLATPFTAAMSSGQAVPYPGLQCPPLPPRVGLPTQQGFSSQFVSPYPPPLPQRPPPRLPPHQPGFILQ

Legend:
Test in all cases: log2 fold change, soluble protein after heating vs DMSO (PISA); higher = thermal stabilisation; K562 lysate, 10 uM; active = over 0.2 and 3.5 SD of the protein, either way, in both replicates (recomputed)
[1] = compound: NCC(=O)Nc1ccc(-n2nc(C(F)(F)F)cc2-c2ccc3c(ccc4ccccc43)c2)cc1
Summary of the method: (§1)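 Dounce homogenisation of K562 pellets in PBS pH 7.4 with 1 mM MgCl2 produced a crude extract, used at 1 mg/mL protein. Exposure to 10 μM compound lasted 30 min, and aliquots were then heated for 3 min across 48°C-58°C, pooled and brought to 0.5% NP-40 at 4°C. The supernatant after 21,000xg for 90 min was quantified by TMTpro 16plex LC-MS/MS with channel sums equalised. Duplicate values are given as log-two fold change in thermal stability relative to solvent controls.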

vorinostat = compound: O=C(CCCCCCC(=O)Nc1ccccc1)NO [vorinostat]
Summary of the method: as §1

silmitasertib = compound: O=C(O)c1ccc2c(c1)nc(Nc1cccc(Cl)c1)c1ccncc12 [silmitasertib]
Summary of the method: as §1

[2] = compound: O=C1NC(=O)C(c2cnc3ccccn23)=C1c1cn2c3c(cc(F)cc13)CN(C(=O)N1CCCCC1)CC2
Summary of the method: as §1

entospletinib = compound: c1cn2cc(-c3ccc4cn[nH]c4c3)nc(Nc3ccc(N4CCOCC4)cc3)c2n1 [entospletinib]
Summary of the method: as §1

Measured: log2 fold change

VPS26B (UniProt Q4G0F5)
inactive: [1] 0.024 | vorinostat 0.029 | silmitasertib -0.002 | [2] -0.006 | entospletinib 0.008

WRN (UniProt Q14191)
active: vorinostat -0.282
inactive: [1] 0.003 | silmitasertib 0.035 | [2] -0.013 | entospletinib -0.005

VPS29 (UniProt Q9UBQ0)
inactive: [1] 0.074 | vorinostat -0.044 | silmitasertib 0.074 | [2] 0.063

WASHC5 (UniProt Q12768)
inactive: [1] -0.033 | vorinostat 0.092 | silmitasertib 0.001 | [2] -0.023 | entospletinib 0

WDR61 (UniProt Q9GZS3)
inactive: [1] -0.014 | vorinostat 0.025 | silmitasertib -0.008 | [2] 0.016 | entospletinib 0.011

VPS35 (UniProt Q96QK1)
inactive: [1] -0.018 | vorinostat 0.015 | silmitasertib -0.011 | [2] 0.002 | entospletinib 0

VPS16 (UniProt Q9H269)
inactive: [1] -0.047 | silmitasertib 0.076 | [2] -0.01 | entospletinib 0.03
active: vorinostat -0.543

WBP11 (UniProt Q9Y2W2)
inactive: [1] -0.015 | vorinostat 0.143 | silmitasertib -0.037 | [2] -0.012 | entospletinib -0.012

VPS33B (UniProt Q9H267)
inactive: [1] -0.004 | vorinostat -0.082 | silmitasertib 0.035 | [2] 0.011 | entospletinib -0.018

WDR13 (UniProt Q9H1Z4)
inactive: [1] -0.036 | vorinostat 0.048 | silmitasertib 0.032 | [2] -0.031 | entospletinib -0.007

VPS37C (UniProt A5D8V6)
inactive: [1] 0.039 | vorinostat 0.066 | silmitasertib -0.019 | [2] 0.022 | entospletinib -0.127

VKORC1 (UniProt Q9BQB6)
inactive: [1] -0.05 | vorinostat 0.04 | silmitasertib 0.024 | [2] -0.033 | entospletinib -0.053

VPS4A (UniProt Q9UN37)
active: vorinostat -0.356
inactive: [1] -0.026 | silmitasertib 0.059 | [2] -0.013 | entospletinib 0.038

WNK1 isoform 7 (UniProt Q9H4A3)
inactive: [1] 0.021 | vorinostat -0.058 | silmitasertib 0.025 | [2] -0.009 | entospletinib -0.015

Taken from the results shown (2 entries):
VKORC1 (UniProt Q9BQB6)
inactive: [1] -0.05 | vorinostat 0.04 | silmitasertib 0.024 | [2] -0.033 | entospletinib -0.053

VPS4A (UniProt Q9UN37)
active: vorinostat -0.356
inactive: [1] -0.026 | silmitasertib 0.059 | [2] -0.013 | entospletinib 0.038

Carrying on.

WDR6 (UniProt Q9NNW5)
active: vorinostat -0.321
inactive: [1] 0.012 | silmitasertib 0.01 | [2] -0.025 | entospletinib 0

XPA (UniProt P23025)
inactive: [1] -0.026 | vorinostat 0.047 | silmitasertib -0.012 | [2] 0.053 | entospletinib 0.014

WRNIP1 (UniProt Q96S55)
inactive: [1] -0.011 | silmitasertib 0 | [2] -0.046 | entospletinib -0.02
active: vorinostat -0.521

WDR45 isoform 2 (UniProt Q9Y484)
inactive: [1] 0.018 | vorinostat 0.025 | silmitasertib 0.016 | [2] 0 | entospletinib 0.009

WDR26, A0A499FIZ0
inactive: [1] -0.024 | vorinostat -0.124 | silmitasertib 0.01 | [2] -0.032 | entospletinib 0.002

VPS37B (UniProt Q9H9H4)
active: vorinostat -0.349
inactive: [1] 0.029 | silmitasertib 0.045 | [2] -0.035 | entospletinib -0.058

VPS28 (UniProt Q9UK41)
inactive: [1] 0.03 | silmitasertib -0.002 | [2] -0.043 | entospletinib 0.033
active: vorinostat -0.37

WASHC2A (UniProt Q641Q2)
inactive: [1] 0.009 | vorinostat 0.079 | silmitasertib -0.014 | [2] -0.004 | entospletinib -0.006

WEE1 (UniProt P30291)
active: vorinostat -0.52
inactive: [1] 0.023 | silmitasertib 0.107 | [2] -0.03 | entospletinib -0.007

WDR3 (UniProt Q9UNX4)
inactive: [1] -0.031 | silmitasertib 0.044 | [2] 0.01 | entospletinib -0.001
active: vorinostat -0.255

WDR45B (UniProt Q5MNZ6)
inactive: [1] -0.011 | vorinostat 0.012 | silmitasertib 0.019 | [2] 0.027 | entospletinib 0.014
